Results deposited as PubChem BioAssay AID1259254 (NCATS, 2017)
Here is an unselected part of about 59,000 deposited reagents. About 1,550 of them (2.6%) were called active. 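G2 share is only a proxy for re-replication; each gene was hit by three separate siRNAs, and active genes were retested.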 Reagents against one gene are numbered here. Further read-outs or replicates are left out here. Reagent sequences are not shown. Not stated in the record: the amount of reagent.

- Purpose: 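Gene knock-downs that lead to re-replication, shown by excess G2 DNA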 (primary screen)
- Cells: human HCT116 colorectal cancer cells
- Knock-down reagent: single siRNA against human genes
- Timing: 3 days
- Measurement: 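Imaged Hoechst DNA stain sorts each cell into a cycle phase by DNA amount; per plate, G2 fraction set to 0% for non-targeting and 100% for GMNN siRNA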
- Scale: G2 robust z-score: higher = more G2 cells, more excess DNA replication
- Hit rule: 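An siRNA counts as active if its G2 robust z-score lies at least 5 MADs above the screen median; here such calls match roughly 38% of GMNN control or more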

G2 robust z-score, by target gene and reagent
KAT5: #1 2.09 inactive; #2 0.42 inactive; #3 0.544 inactive
KNL1: #1 7.2 active; #2 2.35 inactive; #3 5.14 active
UBE2C: #1 1.99 inactive; #2 -0.539 inactive; #3 0.31 inactive
CDH13: #1 6 active; #2 0.975 inactive; #3 3.74 inactive
USP10: #1 0.0758 inactive; #2 -0.93 inactive; #3 -0.355 inactive
AGXT2: #1 1.3 inactive; #2 -0.918 inactive; #3 -1.13 inactive
SLC25A5: #1 1.75 inactive; #2 -0.71 inactive; #3 1.76 inactive
ARHGAP33: #1 1.21 inactive; #2 0.133 inactive; #3 0.401 inactive
TRPM8: #1 0.349 inactive; #2 4.16 inactive; #3 0.695 inactive
NES: #1 -0.558 inactive; #2 -1.1 inactive; #3 1.49 inactive

Records above called active:
G2 robust z-score, by target gene and reagent
KNL1: #1 7.2 active; #3 5.14 active
CDH13: #1 6 active
